For at least one compound, name, drawing or mass did not settle the structure.
What was measured:
[1] = system: HMEC; assay: 2D-culture of HMEC: mesenchymal attributes (morphology, immunofluorescence, RT-PCR); type: cell-based, human; conditions: 10 μM Forskolin versus absence; passages 1, 3, 5; donor M4
[2] = system: HMEC; assay: ELDA of branched structure-forming units in floating collagen gels after 2D-culture; type: cell-based, human; conditions: 2D-culture in presence of 10 μM Forskolin, passage 5; donor M4
Text: Mammary gland tissue was obtained from healthy women undergoing reduction mammoplasty at the Nymphenburg Clinic for Plastic and Aesthetic Surgery (Christian Gabka), in accordance with the regulations of the ethics committee of the Ludwig-Maximilian University Munich (proposal 397-12). Single cell suspensions of primary HMEC were generated as previously described with minor modifications ([…] et al., 2005). Briefly, the ductal tree was minced into about 1.0 mm^3 pieces and digested in collagenase I and hyaluronidase (both Sigma), and subsequently with Trypsin-EDTA and dispase (Life Technologies), and then cryopreserved. Before further processing, cells were filtered through a 40 μm strainer, to remove residual tissue fragments and cell aggregates. Cells were seeded in 2D on polystyrene cell culture plates or in collagen I gels in Mammary Epithelial Cell Growth Medium (MECGM, PromoCell) supplemented with 1% Pen/Strep (Invitrogen), 0.5% FCS (Pan Biotech), 3 μM Y-27632 (Biomol) and 10 μM Forskolin (Biomol), unless stated otherwise. After an establishment period of 5 days, medium was changed to MECGM supplemented with 1% Pen/Strep and 10 μM Forskolin, unless stated otherwise. […] Gels with at least one branched structure were counted as positive. […] Limiting dilutions were analyzed using a webtool, as described previously (Hu and Smyth, 2009).

C=C[C@@]1(C)CC(=O)[C@]2(O)[C@@]3(C)[C@@H](O)CCC(C)(C)[C@@H]3[C@H](O)[C@H](OC(C)=O)[C@@]2(C)O1 [Forskolin]
effect on mesenchymal attributes in 2D-culture [1]: inhibited mesenchymal attributes | TDLU-like structure formation [2]: dramatically decreased
